Data: PMC5421940
Results are given in words; binding and its absence hold for the method and conditions named. Binding seen in cells or lysates may run through a third protein. Some binding calls cover weakened binding; strength is not graded here. For some assays here: Sequences can lack the tags named with a protein.

Sequences of proteins named here, by UniProt entry; tags and fusion partners are left off. A change or cut given only in a name is not applied to a line headed by its entry.
UniProt Q9Y6K9: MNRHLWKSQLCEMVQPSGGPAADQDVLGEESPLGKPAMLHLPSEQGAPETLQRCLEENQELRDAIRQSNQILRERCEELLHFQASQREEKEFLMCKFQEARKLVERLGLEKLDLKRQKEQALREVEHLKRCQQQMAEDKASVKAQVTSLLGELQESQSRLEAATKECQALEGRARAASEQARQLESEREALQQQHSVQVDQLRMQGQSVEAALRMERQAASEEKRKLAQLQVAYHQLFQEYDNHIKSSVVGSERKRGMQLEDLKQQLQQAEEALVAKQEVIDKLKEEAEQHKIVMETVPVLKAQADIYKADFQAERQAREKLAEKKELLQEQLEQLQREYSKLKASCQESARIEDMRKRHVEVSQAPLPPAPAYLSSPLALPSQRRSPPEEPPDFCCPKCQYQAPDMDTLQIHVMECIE

T1: FLAG-PP4c (expressed in cells) (UniProt P60510)
T1 sequence: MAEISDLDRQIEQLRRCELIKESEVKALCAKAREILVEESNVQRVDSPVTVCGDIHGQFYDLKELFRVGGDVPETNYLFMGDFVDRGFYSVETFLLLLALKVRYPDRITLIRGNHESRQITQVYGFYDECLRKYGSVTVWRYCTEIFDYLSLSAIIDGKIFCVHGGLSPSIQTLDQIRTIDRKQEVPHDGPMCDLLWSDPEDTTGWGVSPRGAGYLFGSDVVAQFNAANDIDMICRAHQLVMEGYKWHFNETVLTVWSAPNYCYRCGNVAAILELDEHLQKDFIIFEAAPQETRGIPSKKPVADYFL


Tests used:
[1] = molecular target: GST-NEMO (bacterially expressed, pGEX6P1) (UniProt Q9Y6K9); experiment: pull-down; bacterially expressed GST fusion on glutathione-agarose beads, incubated 3 hours in lysis buffer with one ITT produced protein alone, western blot; only the target purified
GST-NEMO D311N = GST-NEMO D311N (UniProt Q9Y6K9); experiment: pull-down; lysates of MCC13 cells expressing GST, GST-NEMO or GST-NEMO D311N with GFP-tAg incubated with glutathione-agarose beads; blots for GST, GFP, PP4c and PP4R1
[2] = molecular target: GST-NEMO (wild type, pEBG2T-NEMO, expressed in cells) (UniProt Q9Y6K9); experiment: as above
[3] = molecular target: T1, FLAG-PP4c (expressed in cells); experiment: co-IP
[4] = molecular target: FLAG-tagged full-length NEMO (1-419) (UniProt Q9Y6K9); experiment: co-IP

Row | Binder | binding [1] | binding (GST-NEMO D311N) | binding [2] | binding [3] | binding [4]
1 | FLAG-tagged PP4c, ITT produced (enzyme, UniProt P60510 1-307) MAEISDLDRQIEQLRRCELIKESEVKALCAKAREILVEESNVQRVDSPVTVCGDIHGQFYDLKELFRVGGDVPETNYLFMGDFVDRGFYSVETFLLLLALKVRYPDRITLIRGNHESRQITQVYGFYDECLRKYGSVTVWRYCTEIFDYLSLSAIIDGKIFCVHGGLSPSIQTLDQIRTIDRKQEVPHDGPMCDLLWSDPEDTTGWGVSPRGAGYLFGSDVVAQFNAANDIDMICRAHQLVMEGYKWHFNETVLTVWSAPNYCYRCGNVAAILELDEHLQKDFIIFEAAPQETRGIPSKKPVADYFL | binds |  |  |  | 
2 | endogenous PP4R1 (MCC13 cells) (protein, UniProt Q8TF05 1-950) MADLSLLQEDLQEDADGFGVDDYSSESDVIIIPSALDFVSQDEMLTPLGRLDKYAASENIFNRQMVARSLLDTLREVCDDERDCIAVLERISRLADDSEPTVRAELMEQVPHIALFCQENRPSIPYAFSKFLLPIVVRYLADQNNQVRKTSQAALLALLEQELIERFDVETKVCPVLIELTAPDSNDDVKTEAVAIMCKMAPMVGKDITERLILPRFCEMCCDCRMFHVRKVCAANFGDICSVVGQQATEEMLLPRFFQLCSDNVWGVRKACAECFMAVSCATCQEIRRTKLSALFINLISDPSRWVRQAAFQSLGPFISTFANPSSSGQYFKEESKSSEEMSVENKNRTRDQEAPEDVQVRPEDTPSDLSVSNSSVILENTMEDHAAEASGKPLGEISVPLDSSLLCTLSSESHQEAASNENDKKPGNYKSMLRPEVGTTSQDSALLDQELYNSFHFWRTPLPEIDLDIELEQNSGGKPSPEGPEEESEGPVPSSPNITMATRKELEEMIENLEPHIDDPDVKAQVEVLSAALRASSLDAHEETISIEKRSDLQDELDINELPNCKINQEDSVPLISDAVENMDSTLHYIHSDSDLSNNSSFSPDEERRTKVQDVVPQALLDQYLSMTDPSRAQTVDTEIAKHCAYSLPGVALTLGRQNWHCLRETYETLASDMQWKVRRTLAFSIHELAVILGDQLTAADLVPIFNGFLKDLDEVRIGVLKHLHDFLKLLHIDKRREYLYQLQEFLVTDNSRNWRFRAELAEQLILLLELYSPRDVYDYLRPIALNLCADKVSSVRWISYKLVSEMVKKLHAATPPTFGVDLINELVENFGRCPKWSGRQAFVFVCQTVIEDDCLPMDQFAVHLMPHLLTLANDRVPNVRVLLAKTLRQTLLEKDYFLASASCHQEAVEQTIMALQMDRDSDVKYFASIHPASTKISEDAMSTASSTY |  | binds | binds | binds | binds
3 | HA-PP4R1, ITT produced (protein, UniProt Q8TF05 1-950) MADLSLLQEDLQEDADGFGVDDYSSESDVIIIPSALDFVSQDEMLTPLGRLDKYAASENIFNRQMVARSLLDTLREVCDDERDCIAVLERISRLADDSEPTVRAELMEQVPHIALFCQENRPSIPYAFSKFLLPIVVRYLADQNNQVRKTSQAALLALLEQELIERFDVETKVCPVLIELTAPDSNDDVKTEAVAIMCKMAPMVGKDITERLILPRFCEMCCDCRMFHVRKVCAANFGDICSVVGQQATEEMLLPRFFQLCSDNVWGVRKACAECFMAVSCATCQEIRRTKLSALFINLISDPSRWVRQAAFQSLGPFISTFANPSSSGQYFKEESKSSEEMSVENKNRTRDQEAPEDVQVRPEDTPSDLSVSNSSVILENTMEDHAAEASGKPLGEISVPLDSSLLCTLSSESHQEAASNENDKKPGNYKSMLRPEVGTTSQDSALLDQELYNSFHFWRTPLPEIDLDIELEQNSGGKPSPEGPEEESEGPVPSSPNITMATRKELEEMIENLEPHIDDPDVKAQVEVLSAALRASSLDAHEETISIEKRSDLQDELDINELPNCKINQEDSVPLISDAVENMDSTLHYIHSDSDLSNNSSFSPDEERRTKVQDVVPQALLDQYLSMTDPSRAQTVDTEIAKHCAYSLPGVALTLGRQNWHCLRETYETLASDMQWKVRRTLAFSIHELAVILGDQLTAADLVPIFNGFLKDLDEVRIGVLKHLHDFLKLLHIDKRREYLYQLQEFLVTDNSRNWRFRAELAEQLILLLELYSPRDVYDYLRPIALNLCADKVSSVRWISYKLVSEMVKKLHAATPPTFGVDLINELVENFGRCPKWSGRQAFVFVCQTVIEDDCLPMDQFAVHLMPHLLTLANDRVPNVRVLLAKTLRQTLLEKDYFLASASCHQEAVEQTIMALQMDRDSDVKYFASIHPASTKISEDAMSTASSTY | binds |  |  |  | 
4 | endogenous PP4c (MCC13 cells) (enzyme, UniProt P60510 1-307) MAEISDLDRQIEQLRRCELIKESEVKALCAKAREILVEESNVQRVDSPVTVCGDIHGQFYDLKELFRVGGDVPETNYLFMGDFVDRGFYSVETFLLLLALKVRYPDRITLIRGNHESRQITQVYGFYDECLRKYGSVTVWRYCTEIFDYLSLSAIIDGKIFCVHGGLSPSIQTLDQIRTIDRKQEVPHDGPMCDLLWSDPEDTTGWGVSPRGAGYLFGSDVVAQFNAANDIDMICRAHQLVMEGYKWHFNETVLTVWSAPNYCYRCGNVAAILELDEHLQKDFIIFEAAPQETRGIPSKKPVADYFL |  | binds | binds |  | 
